Source: PubChem BioAssay AID1347076 (National Center for Advancing Translational Sciences (NCATS), 2019)
The campaign covered roughly 400,000 compounds. About 13,000 (3.2%) were called active. Inconclusive results, whose numbers are uncertain, are shown with a selection of clear calls. The call rests on the fitted dose curve; in most records, active means well fitted cell-killing curve with a large enough effect; inconclusive means small, poorly fitted or top-dose-only effect, or effect the other way; inactive means flat fitted curve, though single readings scatter. Potencies beside an inconclusive call are fits to weak or partial responses and may not hold up.

Assay: qHTS assay for MDR1-selective chemotherapeutics: Primary screen using the drug-selected MDR subline cells KB-V1; further: nearly all actives have a fitted effect of over 60% in size
Conditions: KB-V1 MDR cells viability, CellTiter-Glo, 72 h; series mostly up to 46.1 µM
How it was run: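 qHTS viability screen in drug-selected KB-V1 MDR cells: 72 h compound treatment at 37 degrees C, ATP luminescence end point.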
Potency means the concentration at half of the fitted maximal effect.

| Compound | Potency |
| --- | --- |
| O=C(CN1CC=C(c2ccccc2)CC1)Nc1cc(Cl)ccc1Cl | inconclusive: 32.6 µM [cytotoxic, partial curve, poor fit] |
| CCN(CC)C(=O)c1ccc(NC(=O)c2cccc(F)c2)cc1 | active: 20.6 µM |
| CCCn1c(C)c(C(=O)c2cccc3ccccc23)c2ccccc21 | inconclusive: 20.6 µM [cytotoxic, single point] |
| Cc1cccc(N=Nc2ccc(N(C)C)cc2)c1 | inactive |
| CCCCn1c(=O)c(C(=O)NCc2ccco2)c(O)c2ccccc21 | inconclusive: 20.6 µM [cytotoxic, single point] |
| O=c1c2ccccc2nc(/C=C/c2ccc3c(c2)OCO3)n1-c1cccc(O)c1 | inconclusive: 20.6 µM [cytotoxic, partial curve] |
| CC(C)=CCN1CC[C@@]2(C)c3cc(O)ccc3CC1C2C (some centres not stated) | inconclusive: 29.1 µM [cytotoxic, single point] |
| CCCCn1nnnc1C(CCc1ccccc1)N1CCC2(CC1)C(=O)NCN2c1ccccc1 (configuration not stated) | inconclusive: 18.4 µM [cytotoxic, single point] |
| O=C(NC(=S)N1C[C@H]2C[C@H](C1)c1cccc(=O)n1C2)c1ccc(Cl)cc1Cl | inactive |
| O=P1(N(CCCl)CCCl)NCCCO1 (configuration not stated) | inactive |
| COc1ccccc1OCCCn1cc(C(=O)c2ccco2)c2ccccc21 | inconclusive: 20.6 µM [cytotoxic, single point] |
| CC(=NCc1ccc2c(c1)OCO2)c1c(O)n(C)c(=O)n(C)c1=O | active: 20.6 µM |
| COC1CC2C=C(C)C=CC=CC(=O)NC(c3ccccc3)CC=CCCC(O)CC(=O)C2=C1O (configuration not stated) | active: 5.8 µM |
| CCCN1CCCC(C(=O)c2cc(C)c(OC)c(C)c2)C1 (configuration not stated) | inconclusive: 2.31 µM [cytotoxic, full curve] |
| CN1CCN(c2nc3c(c(=O)[nH]2)CCC3)CC1 | inconclusive: 18.4 µM [rising, single point] |
| CCC(=O)OC1CCC2C3CCC4CC(=O)C=CC4(C)C3CCC12C (configuration not stated) | active: 5.8 µM |
| CC[C@H]1CC2CN3CCc4c([nH]c5ccccc45)C(C(=O)OC)(C2)C13 (some centres not stated) | inconclusive: 25.9 µM [rising, partial curve, poor fit] |
| CN1C(=O)/C(=C\N2CCc3ccccc32)C(=O)NC1=S | inactive |
| CCC1C2CC3C4N(C)c5ccccc5C45CC(C2C5O)N3[C@@H]1O (some centres not stated) | inconclusive: 5.8 µM [rising, partial curve] |
| CCN(CC)CCCN=C(C)c1c(O)n(C2CCCCC2)c(=O)[nH]c1=O | inconclusive: 18.4 µM [cytotoxic, single point] |
| Cn1c(O)c(C=NCCc2c[nH]c3ccccc23)c(=O)n(C)c1=O | inconclusive: 8.2 µM [cytotoxic, partial curve, poor fit] |
| CN(C(=O)CNC(=O)OCc1ccccc1)c1ccc(Br)cc1C(=O)c1ccccc1Cl | active: 3.66 µM |
| CN1C(=O)N(C)C(=O)C2(Cc3cc([N+](=O)[O-])ccc3N(C)C2c2ccccc2)C1=O (configuration not stated) | inactive |
| Cc1[nH]c2c(C(F)(F)F)cccc2c1CCN | inconclusive: 29.1 µM [cytotoxic, single point] |

20 compounds already listed, ordered by formula weight, largest number first:

| Compound | Potency |
| --- | --- |
| COC1CC2C=C(C)C=CC=CC(=O)NC(c3ccccc3)CC=CCCC(O)CC(=O)C2=C1O (configuration not stated) | active: 5.8 µM |
| CCCCn1nnnc1C(CCc1ccccc1)N1CCC2(CC1)C(=O)NCN2c1ccccc1 (configuration not stated) | inconclusive: 18.4 µM [cytotoxic, single point] |
| O=C(NC(=S)N1C[C@H]2C[C@H](C1)c1cccc(=O)n1C2)c1ccc(Cl)cc1Cl | inactive |
| CN1C(=O)N(C)C(=O)C2(Cc3cc([N+](=O)[O-])ccc3N(C)C2c2ccccc2)C1=O (configuration not stated) | inactive |
| O=c1c2ccccc2nc(/C=C/c2ccc3c(c2)OCO3)n1-c1cccc(O)c1 | inconclusive: 20.6 µM [cytotoxic, partial curve] |
| COc1ccccc1OCCCn1cc(C(=O)c2ccco2)c2ccccc21 | inconclusive: 20.6 µM [cytotoxic, single point] |
| CCN(CC)CCCN=C(C)c1c(O)n(C2CCCCC2)c(=O)[nH]c1=O | inconclusive: 18.4 µM [cytotoxic, single point] |
| O=C(CN1CC=C(c2ccccc2)CC1)Nc1cc(Cl)ccc1Cl | inconclusive: 32.6 µM [cytotoxic, partial curve, poor fit] |
| CCC(=O)OC1CCC2C3CCC4CC(=O)C=CC4(C)C3CCC12C (configuration not stated) | active: 5.8 µM |
| CCCCn1c(=O)c(C(=O)NCc2ccco2)c(O)c2ccccc21 | inconclusive: 20.6 µM [cytotoxic, single point] |
| CC[C@H]1CC2CN3CCc4c([nH]c5ccccc45)C(C(=O)OC)(C2)C13 (some centres not stated) | inconclusive: 25.9 µM [rising, partial curve, poor fit] |
| CCCn1c(C)c(C(=O)c2cccc3ccccc23)c2ccccc21 | inconclusive: 20.6 µM [cytotoxic, single point] |
| CCC1C2CC3C4N(C)c5ccccc5C45CC(C2C5O)N3[C@@H]1O (some centres not stated) | inconclusive: 5.8 µM [rising, partial curve] |
| CCN(CC)C(=O)c1ccc(NC(=O)c2cccc(F)c2)cc1 | active: 20.6 µM |
| CCCN1CCCC(C(=O)c2cc(C)c(OC)c(C)c2)C1 (configuration not stated) | inconclusive: 2.31 µM [cytotoxic, full curve] |
| CN1C(=O)/C(=C\N2CCc3ccccc32)C(=O)NC1=S | inactive |
| CC(C)=CCN1CC[C@@]2(C)c3cc(O)ccc3CC1C2C (some centres not stated) | inconclusive: 29.1 µM [cytotoxic, single point] |
| O=P1(N(CCCl)CCCl)NCCCO1 (configuration not stated) | inactive |
| Cc1cccc(N=Nc2ccc(N(C)C)cc2)c1 | inactive |
| CN1CCN(c2nc3c(c(=O)[nH]2)CCC3)CC1 | inconclusive: 18.4 µM [rising, single point] |

Further entries.

| Compound | Potency |
| --- | --- |
| O=C1N[C@@H](Cc2ccccc2)C(=O)N2[C@H]1C[C@H]1c3ccccc3N(OOSc3ccccc3)[C@H]12 | inactive |
| O=C(CCc1ccccc1)N1Cc2cc(-c3cccc(F)c3)ccc2-n2nncc2C1 | inconclusive: 20.6 µM [cytotoxic, single point] |
| CCOc1cc2c(cc1OCC)-n1cccc1C(c1ccc(C(C)C)cc1)NC2 (configuration not stated) | inconclusive: 29.1 µM [cytotoxic, single point] |
| CCOC(=O)[C@]12Cc3cc(Cl)ccc3[C@H]1N(C1CCCCC1)C(=O)c1cc(OC)ccc12 | active: 5.8 µM |
| CCOC(=O)C(O)(c1ccc(NC(=O)NC2CCCCC2)cc1)C(F)(F)F (configuration not stated) | inconclusive: 20.6 µM [cytotoxic, partial curve, poor fit] |
| Cc1c(C=O)c2ccccc2n1Cc1ccc([N+](=O)[O-])cc1 | active: 10.3 µM |
| N#CSCC(=O)N1c2ccccc2CCc2ccccc21 | active: 23.1 µM |
| Cc1ccc(CN2C(=O)CN=C(c3ccccc3)c3ccccc32)cc1 | active: 18.4 µM |
| COc1cccc(N2C(=O)NC(=O)/C(=C\c3ccc([N+](=O)[O-])s3)C2=O)c1 | inconclusive: 29.1 µM [rising, single point] |
| CCOC(=O)[C@]12Cc3cc(C)ccc3[C@H]1N(C1CCCCC1)C(=O)c1cc(OC)ccc12 | active: 4.11 µM |
| Clc1cc(Cl)c(-c2cc(Cl)c(Cl)cc2Cl)cc1Cl | inactive |
| COc1ccc(OC)c(NC(=O)N2C[C@H]3C[C@@H](C2)c2cccc(=O)n2C3)c1 | inconclusive: 6.51 µM [rising, full curve, poor fit] |
| O=[N+]([O-])c1ccc(N2CCCC2)c2ccncc12 | inactive |
| COc1ccc(Cl)cc1N=Cc1c(O)n(C)c(=O)n(C)c1=O | inconclusive: 0.184 µM [cytotoxic, full curve] |
| COC(=O)Cn1cc(/C=C2\C(=O)NC(=O)N(c3ccc(OC)cc3)C2=O)c2ccccc21 | inactive |
| Nc1ccc(CCN2CCCC2)cc1 | inactive |
| C[n+]1c(-c2ccccc2)cc(CCCCc2cc(-c3ccccc3)[n+](C)c(-c3ccccc3)c2)cc1-c1ccccc1 | inactive |
| CCCCN=C[C@]12CCC(O)CC1(O)CCC1[C@@H]2CC[C@]2(C)[C@H](C3C=CC(=O)O3)CCC12O (some centres not stated) | active: 0.517 µM |
| Cc1ccc(CNCCc2ccc(F)cc2)s1 | inactive |
| CC(=O)OC1CC(OC2C(O)CC(OC3C(O)CC(OC4CCC5(C)C(CCC6C5CCC5(C)C(C7=CC(=O)OC7)C(O)CC65O)C4)OC3C)OC2C)OC(C)C1OC1OC(CO)C(O)C(O)C1O (configuration not stated) | inconclusive: 1.64 µM [cytotoxic, full curve, poor fit] |
| C=CCN1C(=O)/C(=C\c2ccc(N3CCOCC3)o2)C(=O)NC1=S | inactive |
| O=C(c1ccc2c(c1)ncn2-c1ccc(F)cc1F)N1CCC2(CC1)OCCO2 | inconclusive: 16.4 µM [cytotoxic, single point] |
| Cc1nnc2n1-c1ccc(Br)cc1C(c1ccccc1Cl)=NC2 | inconclusive: 8.2 µM [cytotoxic, partial curve] |
| COC(=O)[C@@H]1[C@@H](C(=O)OC)C2(c3ccccc3-c3ccccc32)N(c2ccc(Cl)cc2)N1C#N | inconclusive: 16.4 µM [cytotoxic, single point] |

| Compound | Potency |
| --- | --- |
| O=[N+]([O-])c1ccc(N2CCCCCC2)c2nonc12 | inconclusive: 20.6 µM [cytotoxic, single point] |
| CC1(C)CSC(=NCc2ccccc2)N1 | inactive |
| Cc1cccc(CN2CC=C(c3noc(CCC(=O)Nc4ccc(C)c(F)c4)n3)CC2)c1 | inactive |
| CCC(=NCCCN1CCOCC1)c1c(O)n(Cc2ccccc2)c(=O)[nH]c1=O | inconclusive: 23.1 µM [cytotoxic, single point] |
| Cc1ccc(O)c(C(=O)c2cc(C(=O)NCc3ccccc3)c(=O)n(Cc3ccccc3)c2)c1 | inactive |
| COc1ccc(CCn2c(O)c(/C=N/N3CCOCC3)c(=O)[nH]c2=O)cc1OC | inactive |
| COc1cc([C@@H]2c3cc4c(cc3[C@H](OC(C)=O)[C@H]3COC(=O)[C@@H]23)OCO4)cc(OC)c1OC | inconclusive: 1.16 µM [cytotoxic, full curve, poor fit] |
| COC(=O)C1=C(c2ccccc2)C[C@@H]2CC[C@H]1N2C(=O)NCCNC(C)=O | inactive |
| CCCCn1c(O)c(/C=C2/C=CC=N2)c(=O)[nH]c1=O | inactive |
| COc1ccc(NC(=O)c2sc3nc4c(cc3c2N)N2CCC4CC2)cc1OC | inactive |
| C[C@@H]1O[C@@H](O[C@@H]2C=C3CC[C@@H]4C(CC[C@]5(C)[C@@H](c6ccc(=O)oc6)CC[C@]45O)[C@@]3(C)CC2)[C@H](O)[C@H](O)[C@H]1O (some centres not stated) | active: 0.0259 µM |
| CN1CCC(O)(c2cccs2)C(C(=O)c2cccs2)C1 (configuration not stated) | inactive |
| Cc1cccc(C)c1-n1nnnc1C(c1ccccc1)N1CCC2(CC1)C(=O)NCN2c1ccccc1 (configuration not stated) | inactive |
| CCOC(=O)CC1c2ccccc2-n2nncc2CN1CC1CCCCC1 (configuration not stated) | inconclusive: 29.1 µM [rising, single point] |
| COC(=O)C1=C(c2ccc(OC)c(OC)c2)C[C@@H]2CC[C@H]1N2C(=O)NC1Cc2ccccc2C1 | inactive |
| COc1ccc(C(c2ccc(OC)cc2)C(Cl)(Cl)Cl)cc1 | inactive |
| O=c1[nH]c2ccccc2n1C1CCN(C(c2ccccc2)c2nnnn2Cc2ccccc2)CC1 (configuration not stated) | active: 18.4 µM |
| Cc1ccccc1-n1c(O)c(/C=N/N2CCOCC2)c(=O)[nH]c1=S | inconclusive: 32.6 µM [rising, single point] |
| COc1ccc(/C=N/N=C(/N)N[N+](=O)[O-])c(OC)c1 | active: 1.03 µM |
| CCC(=NCc1ccco1)c1c(O)n(C)c(=O)n(C)c1=O | inconclusive: 16.4 µM [cytotoxic, single point] |
| O=C1NCN(c2ccccc2)C12CCN(C(c1ccnc3ccccc13)c1nnnn1-c1ccc3c(c1)OCCO3)CC2 (configuration not stated) | inconclusive: 29.1 µM [cytotoxic, single point] |
| O=S1(=O)N(Cc2ccc(F)cc2)CCCN1Cc1ccccc1Cl | inactive |
| O=C(c1cc(C(=O)NCc2ccccc2)c(=O)n(Cc2ccccc2)c1)c1cc(Cl)ccc1O | active: 18.4 µM |
| O=c1[nH]c(O)c(/C=C2/C=CC(c3cc(Cl)ccc3Cl)=N2)c(=O)[nH]1 | inconclusive: 29.1 µM [cytotoxic, single point] |
